Reference: patent US20140335203A1, “SYNERGISTIC BLENDS OF ANTIMICROBIALS USEFUL FOR CONTROLLING MICROORGANISMS IN INDUSTRIAL PROCESSES” (Hercules Incorporated, priority 2013, published 2014)
At least one compound was matched to its structure with a doubt left.

Tested on: Lactobacillus plantarum
Test: Checkerboard synergy plates (MIC in combination, Synergy Index by Kull et al.)
Type: cell-based
Settings: pH 6
Procedure: Minimal inhibitory concentrations were determined for both chlorine dioxide and citric acid at pH 6 using the protocol described above with Lactobacillus plantarum as the test microbe. Checkerboard synergy plates were constructed as described, the wells inoculated to a final concentration of ˜5×10^5 cfu/ml, incubated for 18-24 hours, and then scored visually for growth/no growth. […] Minimal inhibitory concentrations were determined for both chlorine dioxide and sodium propionate at pH 6 using the protocol described above with Lactobacillus plantarum as the test microbe. Checkerboard synergy plates wore constructed as described, the wells inoculated to a final concentration of ˜5×10^5 cfu/ml, incubated for 18-24 hours, and then scored visually for growth/no growth. […] Minimal inhibitory concentrations were determined for both chlorine dioxide and potassium benzoate at pH 6 using the protocol described above with Lactobacillus plantarum as the test microbe. Checkerboard synergy plates were constructed as described, the wells inoculated to a final concentration of ˜5×10^5 cfu/ml, incubated for 18-24 hours, and then scored visually for growth/no growth. […] Minimal inhibitory concentrations were determined for both chlorine dioxide and ascorbic acid at pH 6 using the protocol described above with Lactobacillus plantarum as the test microbe. […]

Compound	ClO2 MIC (Qa), used in combination (in combination with potassium benzoate)	Sodium Propionate MIC (Qb), used in combination (in combination with ClO2)
[O][Cl+][O-] [ClO2, chlorine dioxide]	0.78 ppm-100	–
CCC(=O)[O-].[Na+] [Sodium Propionate, sodium propionate]	–	390 ppm-25,000
